Measurements from US20210032353A1 (NATIONAL HEALTH RESEARCH INSTITUTES, published 2021).
No constants are given. Whether binding was seen depends on the method and setting. Some entries that bind do so weakly or less than the wild type.

By UniProt entry, the sequences of proteins in these tests, tags left out. Residues count along the entry.
VEGFR2 IgD6 (individual recombinant immunoglobin-like domain 6 of VEGFR2) (P35968, residues 551-660): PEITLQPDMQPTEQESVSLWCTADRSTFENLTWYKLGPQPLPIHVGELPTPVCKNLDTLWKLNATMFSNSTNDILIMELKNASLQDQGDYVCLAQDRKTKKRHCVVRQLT
R2IgD7 (P35968, residues 667-753): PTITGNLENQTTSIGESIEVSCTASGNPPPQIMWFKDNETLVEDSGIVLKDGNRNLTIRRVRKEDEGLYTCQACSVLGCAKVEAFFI
UniProt P35916, residues 555-671: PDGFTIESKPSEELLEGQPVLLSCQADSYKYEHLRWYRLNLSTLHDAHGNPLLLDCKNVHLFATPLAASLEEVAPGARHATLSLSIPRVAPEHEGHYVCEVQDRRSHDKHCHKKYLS

Assays:
[1] = biological target: R2C9-11 monoclonal antibody; experiment: cell-based competitive ELISA: R2C9-11 absorbed with the soluble domain, then bound to fixed 293T/VEGFR2 cells, OD405
[2] = biological target: R2C7-1 monoclonal antibody; experiment: cell-based competitive ELISA: R2C7-1 absorbed with the soluble domain, then bound to fixed 293T/VEGFR2 cells, OD405
[3] = biological target: R2C9-11 monoclonal antibody; experiment: cell-based competitive ELISA: R2C9-11 absorbed with the soluble domain, then bound to 293T/VEGFR3 cells, OD405
[4] = biological target: R2C7-1 monoclonal antibody; experiment: cell-based competitive ELISA: R2C7-1 absorbed with the soluble domain, then bound to 293T/VEGFR3 cells, OD405

Substance	binding [1]	binding [2]	binding [3]	binding [4]
R2IgD7 (from UniProt P35968) (receptor)	binds	binds		
R3-IgD6 (from UniProt P35916) (receptor)			binds	binds
VEGFR2 IgD6 (individual recombinant immunoglobin-like domain 6 of VEGFR2) (from UniProt P35968 551-660) (receptor)	binds	binds		
